PubChem BioAssay AID504774, Drosophila RNAi Screening Center, 2011
Screen: 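Knock-downs that shift viability of MMS-exposed cells relative to untreated ones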 (primary screen). Cells: Drosophila Kc167 cells. Reagents: long dsRNA against Drosophila genes, about 0.25 µg dsRNA per well. Duration: about 6 days: 3 days knock-down, then 3 days with or without MMS. Conditions: methyl methanesulphonate 0.004% (w/v) for 3 days after knock-down. Measured: 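ATP-dependent luminescence as a measure of live cells in MMS-exposed wells, quantile normalised within each plate, with replicate values also given as a mean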. Direction: mean viability with MMS and viability with MMS: higher = more surviving cells after MMS.
The deposit covers about 23,000 reagents; below is a random part of those that have a named target and a result. 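Values are quantile-normalised luminescence on an arbitrary scale; higher means more cells surviving MMS.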 Reagents against one gene are numbered here. A plus sign joins genes that one reagent is predicted to hit. Not all columns of the deposit are shown. No sequences are given here.

{"target gene":"CG33111","reagent no.":1,"mean viability with MMS":3.74e6,"viability with MMS, replicate 1":4.13e6}
{"target gene":"CG33111","reagent no.":2,"mean viability with MMS":3.76e6,"viability with MMS, replicate 1":4.19e6}
{"target gene":"CG33203","reagent no.":1,"mean viability with MMS":3.33e6,"viability with MMS, replicate 1":3.71e6}
{"target gene":"CG33203","reagent no.":2,"mean viability with MMS":3.64e6,"viability with MMS, replicate 1":4.10e6}
{"target gene":"CG33203","reagent no.":3,"mean viability with MMS":3.62e6,"viability with MMS, replicate 1":3.93e6}
{"target gene":"CG7755","reagent no.":1,"mean viability with MMS":3.73e6,"viability with MMS, replicate 1":4.14e6}
{"target gene":"CG4950","reagent no.":1,"mean viability with MMS":3.40e6,"viability with MMS, replicate 1":3.83e6}
{"target gene":"CG10428","reagent no.":1,"mean viability with MMS":3.52e6,"viability with MMS, replicate 1":3.92e6}
{"target gene":"CG33281","reagent no.":1,"mean viability with MMS":3.51e6,"viability with MMS, replicate 1":3.90e6}
{"target gene":"Acox57D-d","reagent no.":1,"mean viability with MMS":3.53e6,"viability with MMS, replicate 1":3.69e6}
{"target gene":"mbm + CG11555","reagent no.":1,"mean viability with MMS":3.43e6,"viability with MMS, replicate 1":3.85e6}
{"target gene":"CG11417","reagent no.":1,"mean viability with MMS":3.33e6,"viability with MMS, replicate 1":3.77e6}
{"target gene":"CG33099","reagent no.":1,"mean viability with MMS":3.61e6,"viability with MMS, replicate 1":4.14e6}
{"target gene":"out","reagent no.":1,"mean viability with MMS":3.83e6,"viability with MMS, replicate 1":4.31e6}

Laid out differently: results already given
| target gene | reagent no. | mean viability with MMS | viability with MMS, replicate 1 |
| --- | --- | --- | --- |
| CG33203 | 2 | 3.64e6 | 4.10e6 |
| CG33203 | 3 | 3.62e6 | 3.93e6 |
| CG7755 | 1 | 3.73e6 | 4.14e6 |
| CG4950 | 1 | 3.40e6 | 3.83e6 |

The results go on:
{"target gene":"CG10909","reagent no.":1,"mean viability with MMS":3.59e6,"viability with MMS, replicate 1":3.87e6}
{"target gene":"GstD1","reagent no.":1,"mean viability with MMS":3.70e6,"viability with MMS, replicate 1":4.11e6}
{"target gene":"CG31952","reagent no.":1,"mean viability with MMS":3.67e6,"viability with MMS, replicate 1":4.10e6}
{"target gene":"CG31952","reagent no.":2,"mean viability with MMS":3.60e6,"viability with MMS, replicate 1":4.09e6}
{"target gene":"spz5","reagent no.":1,"mean viability with MMS":3.29e6,"viability with MMS, replicate 1":3.80e6}
{"target gene":"CG1602","reagent no.":1,"mean viability with MMS":3.60e6,"viability with MMS, replicate 1":4.09e6}
{"target gene":"e(y)3","reagent no.":1,"mean viability with MMS":3.61e6,"viability with MMS, replicate 1":3.94e6}
{"target gene":"ND-75","reagent no.":1,"mean viability with MMS":3.36e6,"viability with MMS, replicate 1":3.80e6}
{"target gene":"yellow-f2","reagent no.":1,"mean viability with MMS":3.57e6,"viability with MMS, replicate 1":3.90e6}
{"target gene":"CG11699","reagent no.":1,"mean viability with MMS":3.51e6,"viability with MMS, replicate 1":3.94e6}
